Measured values published in patent publication US20020106729A1.
These are yes or no findings as the source states them, for the method shown. Some binding calls cover weakened binding; strength is not graded here.

Chains of the proteins cited; added tags and fusions are not shown. Residues count along the entry.
UniProt P06731, residues 35-685: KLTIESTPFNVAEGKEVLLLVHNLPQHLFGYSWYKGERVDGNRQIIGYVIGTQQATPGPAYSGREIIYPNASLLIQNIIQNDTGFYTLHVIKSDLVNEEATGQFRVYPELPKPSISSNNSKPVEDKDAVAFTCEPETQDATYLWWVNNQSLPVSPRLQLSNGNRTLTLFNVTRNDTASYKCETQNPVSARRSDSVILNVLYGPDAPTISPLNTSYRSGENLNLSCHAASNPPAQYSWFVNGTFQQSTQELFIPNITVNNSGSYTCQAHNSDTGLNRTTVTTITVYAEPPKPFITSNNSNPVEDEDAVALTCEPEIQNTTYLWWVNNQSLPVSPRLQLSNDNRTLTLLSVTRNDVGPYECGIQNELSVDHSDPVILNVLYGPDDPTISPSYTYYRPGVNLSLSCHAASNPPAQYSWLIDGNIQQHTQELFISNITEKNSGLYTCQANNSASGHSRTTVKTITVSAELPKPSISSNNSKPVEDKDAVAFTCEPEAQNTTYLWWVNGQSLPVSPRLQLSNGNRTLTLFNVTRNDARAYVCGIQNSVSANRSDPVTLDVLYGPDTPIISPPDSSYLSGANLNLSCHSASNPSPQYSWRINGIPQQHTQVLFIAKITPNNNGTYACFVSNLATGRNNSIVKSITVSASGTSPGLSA

Molecular target: CEA (UniProt P06731)
Test: CEA binding ELISA on culture media of transduced cells, compared with a human IgG ELISA

binding: binds
B1: MN14 antibody (antibody, V domains shown)
VH: EVQLVESGGGVVQPGRSLRLSCSASGFDFTTYWMSWVRQAPGKGLEWIGEIHPDSSTINYAPSLKDRFTISRDNAKNTLFLQMDSLRPEDTGVYFCASLYFGFPWFAYWGQGTPVTVSS
VL: DIQLTQSPSSLSASVGDRVTITCKASQDVGTSVAWYQQKPGKAPKLLIYWTSTRHTGVPSRFSGSGSGTDFTFTISSLQPEDIATYYCQQYSLYRSFGQGTKVEIKR
